Test results taken from patent publication US20170008835A1, “FUMARATE COMPOUNDS, PHARMACEUTICAL COMPOSITIONS THEREOF, AND METHODS OF USE” (priority 2015, published 2017).
Some results were stated once for a whole list of compounds, not compound by compound.

Assays:
[1] = test system: porcine liver esterase; experiment: Hydrolysis of fumarate compounds in vitro by porcine liver esterase; type: in vitro ADME; details: porcine liver esterase in PBS buffer pH 7.0 to 8.0, 20 to 37° C., ca. 24 h, HPLC
[2] = Stability of fumarate compounds in PBS buffer; type: physicochemical; details: PBS 50 mM, pH 7.0 to 7.4, 20 to 37° C., 60 min, HPLC

SMILES	converted to monoester fumarates and/or fumaric acid [1] [%]	stable in PBS buffer [2] [%]
CCNC(=O)NCCOC(=O)/C=C/C(=O)OC [Compound 1, O4-[2-(ethylcarbamoylamino)ethyl] O1-methyl (E)-but-2-enedioate]	> 20	> 90
CCNC(=O)NCCOC(=O)/C=C/C(=O)OCC [Compound 2, O1-ethyl O4-[2-(ethylcarbamoylamino)ethyl] (E)-but-2-enedioate]	> 20	> 90
CCNC(=O)NCCOC(=O)/C=C/C(=O)OC(C)C [Compound 3, O1-[2-(ethylcarbamoylamino)ethyl] O4-isopropyl (E)-but-2-enedioate]	> 20	> 90
COC(=O)/C=C/C(=O)OCCNC(=O)NC(C)C [Compound 4, O4-[2-(isopropylcarbamoylamino)ethyl] O1-methyl (E)-but-2-enedioate]	> 20	> 90
CCOC(=O)/C=C/C(=O)OCCNC(=O)NC(C)C [Compound 5, O1-ethyl O4-[2-(isopropylcarbamoylamino)ethyl] (E)-but-2-enedioate]	> 20	> 90
CC(C)NC(=O)NCCOC(=O)/C=C/C(=O)OC(C)C [Compound 6, O4-isopropyl O1-[2-(isopropylcarbamoylamino)ethyl] (E)-but-2-enedioate]	> 20	> 90
COC(=O)/C=C/C(=O)OCCNC(=O)NC1CCCCC1 [Compound 7, O4-[2-(cyclohexylcarbamoylamino)ethyl] O1-methyl (E)-but-2-enedioate]	> 20	> 90
COC(=O)/C=C/C(=O)OCCNC(=O)Nc1ccccc1 [Compound 8, O1-methyl O4-[2-(phenylcarbamoylamino)ethyl] (E)-but-2-enedioate]	> 20	> 90
CCNC(=O)N(C)CCOC(=O)/C=C/C(=O)OC [Compound 9, O4-[2-[ethylcarbamoyl(methyl)amino]ethyl] O1-methyl (E)-but-2-enedioate]	> 20	> 90
CCNC(=O)N(CC)CCOC(=O)/C=C/C(=O)OC [Compound 10, O4-[2-[ethyl(ethylcarbamoyl)amino]ethyl] O1-methyl (E)-but-2-enedioate]	> 20	> 90
CCNC(=O)N[C@H](C)COC(=O)/C=C/C(=O)OC [Compound 11, O4-[(2R)-2-(ethylcarbamoylamino)propyl] O1-methyl (E)-but-2-enedioate]	> 20	> 90
CCNC(=O)N[C@H](C)COC(=O)/C=C/C(=O)OCC [Compound 12, O1-ethyl O4-[(2R)-2-(ethylcarbamoylamino)propyl] (E)-but-2-enedioate]	> 20	> 90
CCNC(=O)N[C@H](C)COC(=O)/C=C/C(=O)OC(C)C [Compound 13, O1-[(2R)-2-(ethylcarbamoylamino)propyl] O4-isopropyl (E)-but-2-enedioate]	> 20	> 90
COC(=O)/C=C/C(=O)OC[C@@H](C)NC(=O)NC(C)C [Compound 14, O4-[(2R)-2-(isopropylcarbamoylamino)propyl] O1-methyl (E)-but-2-enedioate]	> 20	> 90
CCOC(=O)/C=C/C(=O)OC[C@@H](C)NC(=O)NC(C)C [Compound 15, O1-ethyl O4-[(2R)-2-(isopropylcarbamoylamino)propyl] (E)-but-2-enedioate]	> 20	> 90
CC(C)NC(=O)N[C@H](C)COC(=O)/C=C/C(=O)OC(C)C [Compound 16, O4-isopropyl O1-[(2R)-2-(isopropylcarbamoylamino)propyl] (E)-but-2-enedioate]	> 20	> 90
COC(=O)/C=C/C(=O)OC[C@@H](C)NC(=O)NC1CCCCC1 [Compound 17, O4-[(2R)-2-(cyclohexylcarbamoylamino)propyl] O1-methyl (E)-but-2-enedioate]	> 20	> 90

SMILES	converted to monoester fumarates and/or fumaric acid [1] [%]	stable in PBS buffer [2] [%]
COC(=O)/C=C/C(=O)OC[C@@H](C)NC(=O)Nc1ccccc1 [Compound 18, O1-methyl O4-[(2R)-2-(phenylcarbamoylamino)propyl] (E)-but-2-enedioate]	> 20	> 90
CCNC(=O)N[C@@H](C)COC(=O)/C=C/C(=O)OC [Compound 19, O4-[(2S)-2-(ethylcarbamoylamino)propyl] O1-methyl (E)-but-2-enedioate]	> 20	> 90
CCNC(=O)N[C@@H](C)COC(=O)/C=C/C(=O)OCC [Compound 20, O1-ethyl O4-[(2S)-2-(ethylcarbamoylamino)propyl] (E)-but-2-enedioate]	> 20	> 90
CCNC(=O)N[C@@H](C)COC(=O)/C=C/C(=O)OC(C)C [Compound 21, O1-[(2S)-2-(ethylcarbamoylamino)propyl] O4-isopropyl(E)-but-2-enedioate]	> 20	> 90
COC(=O)/C=C/C(=O)OC[C@H](C)NC(=O)NC(C)C [Compound 22, O4-[(2S)-2-(isopropylcarbamoylamino)propyl] O1-methyl (E)-but-2-enedioate]	> 20	> 90
CCOC(=O)/C=C/C(=O)OC[C@H](C)NC(=O)NC(C)C [Compound 23, O1-ethyl O4-[(2S)-2-(isopropylcarbamoylamino)propyl] (E)-but-2-enedioate]	> 20	> 90
CC(C)NC(=O)N[C@@H](C)COC(=O)/C=C/C(=O)OC(C)C [Compound 24, O4-isopropyl O1-[(2S)-2-(isopropylcarbamoylamino)propyl] (E)-but-2-enedioate]	> 20	> 90
COC(=O)/C=C/C(=O)OC[C@H](C)NC(=O)NC1CCCCC1 [Compound 25, O4-[(2S)-2-(cyclohexylcarbamoylamino)propyl] O1-methyl (E)-but-2-enedioate]	> 20	> 90
COC(=O)/C=C/C(=O)OC[C@H](C)NC(=O)Nc1ccccc1 [Compound 26, O1-methyl O4-[(2S)-2-(phenylcarbamoylamino)propyl] (E)-but-2-enedioate]	> 20	> 90
CCNC(=O)NCCCOC(=O)/C=C/C(=O)OC [Compound 27, O4-[3-(ethylcarbamoylamino)propyl] O1-methyl (E)-but-2-enedioate]	> 20	> 90
CCNC(=O)NCCCOC(=O)/C=C/C(=O)OCC [Compound 28, O1-ethyl O4-[3-(ethylcarbamoylamino)propyl] (E)-but-2-enedioate]	> 20	> 90
CCNC(=O)NCCCOC(=O)/C=C/C(=O)OC(C)C [Compound 29, O1-[3-(ethylcarbamoylamino)propyl] O4-isopropyl (E)-but-2-enedioate]	> 20	> 90
COC(=O)/C=C/C(=O)OCCCNC(=O)NC(C)C [Compound 30, O4-[3-(isopropylcarbamoylamino)propyl] O1-methyl (E)-but-2-enedioate]	> 20	> 90
CCOC(=O)/C=C/C(=O)OCCCNC(=O)NC(C)C [Compound 31, O1-ethyl O4-[3-(isopropylcarbamoylamino)propyl] (E)-but-2-enedioate]	> 20	> 90
CC(C)NC(=O)NCCCOC(=O)/C=C/C(=O)OC(C)C [Compound 32, O4-isopropyl O1-[3-(isopropylcarbamoylamino)propyl] (E)-but-2-enedioate]	> 20	> 90
COC(=O)/C=C/C(=O)OCCCNC(=O)NC1CCCCC1 [Compound 33, O4-[3-(cyclohexylcarbamoylamino)propyl] O1-methyl (E)-but-2-enedioate]	> 20	> 90
COC(=O)/C=C/C(=O)OCCCNC(=O)Nc1ccccc1 [Compound 34, O1-methyl O4-[3-(phenylcarbamoylamino)propyl] (E)-but-2-enedioate]	> 20	> 90
